Only a part is listed here, and it is no random draw.

Chains of the proteins cited; added tags and fusions are not shown. Lines headed by an entry give the natural chain unless they say otherwise; changes in a name come on top.
UniProt Q9UQ80: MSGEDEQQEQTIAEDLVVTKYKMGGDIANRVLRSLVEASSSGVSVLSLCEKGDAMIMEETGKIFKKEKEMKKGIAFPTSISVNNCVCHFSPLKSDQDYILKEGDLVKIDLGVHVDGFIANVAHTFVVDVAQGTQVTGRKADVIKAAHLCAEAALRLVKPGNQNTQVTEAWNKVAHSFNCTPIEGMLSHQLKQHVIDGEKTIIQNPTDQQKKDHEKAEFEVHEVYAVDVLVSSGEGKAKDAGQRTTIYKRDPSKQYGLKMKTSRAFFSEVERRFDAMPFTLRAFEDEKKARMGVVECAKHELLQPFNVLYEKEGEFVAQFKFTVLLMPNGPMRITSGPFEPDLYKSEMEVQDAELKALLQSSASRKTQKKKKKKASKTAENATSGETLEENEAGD
UniProt Q9UPQ0: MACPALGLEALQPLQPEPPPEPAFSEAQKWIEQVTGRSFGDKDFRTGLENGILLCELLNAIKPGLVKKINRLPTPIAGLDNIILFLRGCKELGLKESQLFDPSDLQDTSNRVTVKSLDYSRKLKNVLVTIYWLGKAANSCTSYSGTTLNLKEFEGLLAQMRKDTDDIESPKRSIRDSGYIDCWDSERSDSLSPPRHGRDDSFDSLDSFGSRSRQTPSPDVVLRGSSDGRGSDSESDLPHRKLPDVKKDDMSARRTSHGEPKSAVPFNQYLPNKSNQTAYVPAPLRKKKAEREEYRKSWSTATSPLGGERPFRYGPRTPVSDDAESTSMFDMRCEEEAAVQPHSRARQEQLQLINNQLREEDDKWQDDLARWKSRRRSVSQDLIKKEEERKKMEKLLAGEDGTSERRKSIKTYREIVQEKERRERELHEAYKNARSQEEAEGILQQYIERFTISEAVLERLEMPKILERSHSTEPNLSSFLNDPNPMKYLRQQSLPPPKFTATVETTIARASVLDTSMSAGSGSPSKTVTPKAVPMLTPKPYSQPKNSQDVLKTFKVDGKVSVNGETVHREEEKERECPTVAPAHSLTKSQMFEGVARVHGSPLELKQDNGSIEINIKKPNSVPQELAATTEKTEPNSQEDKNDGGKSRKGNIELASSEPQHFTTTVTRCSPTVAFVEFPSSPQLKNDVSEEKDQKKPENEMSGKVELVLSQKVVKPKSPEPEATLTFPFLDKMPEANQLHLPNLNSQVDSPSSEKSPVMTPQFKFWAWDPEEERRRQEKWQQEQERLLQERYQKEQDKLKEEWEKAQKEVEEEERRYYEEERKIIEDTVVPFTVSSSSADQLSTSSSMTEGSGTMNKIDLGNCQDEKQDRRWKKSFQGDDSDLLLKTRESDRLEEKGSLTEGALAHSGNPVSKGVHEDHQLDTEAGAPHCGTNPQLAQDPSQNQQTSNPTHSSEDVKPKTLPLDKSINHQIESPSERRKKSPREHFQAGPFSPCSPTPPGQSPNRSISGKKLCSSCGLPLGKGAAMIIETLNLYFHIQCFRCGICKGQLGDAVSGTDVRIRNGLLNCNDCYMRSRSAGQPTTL
UniProt Q9UKF6: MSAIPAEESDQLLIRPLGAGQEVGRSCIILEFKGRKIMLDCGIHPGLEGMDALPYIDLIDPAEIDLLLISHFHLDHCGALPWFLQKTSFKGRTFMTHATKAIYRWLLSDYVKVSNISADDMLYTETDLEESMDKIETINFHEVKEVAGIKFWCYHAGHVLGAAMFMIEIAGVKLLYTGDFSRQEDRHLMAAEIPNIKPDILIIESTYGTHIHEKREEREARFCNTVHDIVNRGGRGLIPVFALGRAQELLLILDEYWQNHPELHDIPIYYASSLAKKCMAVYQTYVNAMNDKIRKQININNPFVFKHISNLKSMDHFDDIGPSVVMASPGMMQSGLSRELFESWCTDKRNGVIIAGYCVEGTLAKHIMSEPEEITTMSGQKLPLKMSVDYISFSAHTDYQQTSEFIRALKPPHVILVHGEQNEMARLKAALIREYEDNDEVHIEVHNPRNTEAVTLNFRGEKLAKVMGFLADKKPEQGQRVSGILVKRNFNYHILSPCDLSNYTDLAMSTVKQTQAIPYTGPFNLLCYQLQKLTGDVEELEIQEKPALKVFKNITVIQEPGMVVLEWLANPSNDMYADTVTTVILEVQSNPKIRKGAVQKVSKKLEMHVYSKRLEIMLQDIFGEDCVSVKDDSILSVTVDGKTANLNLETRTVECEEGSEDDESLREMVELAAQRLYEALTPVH
UniProt Q9Y305: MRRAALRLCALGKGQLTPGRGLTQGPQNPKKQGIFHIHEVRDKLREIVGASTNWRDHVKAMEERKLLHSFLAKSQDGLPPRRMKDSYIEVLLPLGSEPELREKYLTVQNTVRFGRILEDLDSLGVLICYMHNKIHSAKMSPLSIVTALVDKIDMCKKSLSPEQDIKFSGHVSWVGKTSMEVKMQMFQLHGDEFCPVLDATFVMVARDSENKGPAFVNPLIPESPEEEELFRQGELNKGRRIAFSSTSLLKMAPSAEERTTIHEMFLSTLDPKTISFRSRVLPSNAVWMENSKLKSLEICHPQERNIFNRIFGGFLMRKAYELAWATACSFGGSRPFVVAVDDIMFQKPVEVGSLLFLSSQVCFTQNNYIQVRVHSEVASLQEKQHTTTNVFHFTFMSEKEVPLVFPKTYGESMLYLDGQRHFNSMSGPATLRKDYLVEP
UniProt Q9UKV3: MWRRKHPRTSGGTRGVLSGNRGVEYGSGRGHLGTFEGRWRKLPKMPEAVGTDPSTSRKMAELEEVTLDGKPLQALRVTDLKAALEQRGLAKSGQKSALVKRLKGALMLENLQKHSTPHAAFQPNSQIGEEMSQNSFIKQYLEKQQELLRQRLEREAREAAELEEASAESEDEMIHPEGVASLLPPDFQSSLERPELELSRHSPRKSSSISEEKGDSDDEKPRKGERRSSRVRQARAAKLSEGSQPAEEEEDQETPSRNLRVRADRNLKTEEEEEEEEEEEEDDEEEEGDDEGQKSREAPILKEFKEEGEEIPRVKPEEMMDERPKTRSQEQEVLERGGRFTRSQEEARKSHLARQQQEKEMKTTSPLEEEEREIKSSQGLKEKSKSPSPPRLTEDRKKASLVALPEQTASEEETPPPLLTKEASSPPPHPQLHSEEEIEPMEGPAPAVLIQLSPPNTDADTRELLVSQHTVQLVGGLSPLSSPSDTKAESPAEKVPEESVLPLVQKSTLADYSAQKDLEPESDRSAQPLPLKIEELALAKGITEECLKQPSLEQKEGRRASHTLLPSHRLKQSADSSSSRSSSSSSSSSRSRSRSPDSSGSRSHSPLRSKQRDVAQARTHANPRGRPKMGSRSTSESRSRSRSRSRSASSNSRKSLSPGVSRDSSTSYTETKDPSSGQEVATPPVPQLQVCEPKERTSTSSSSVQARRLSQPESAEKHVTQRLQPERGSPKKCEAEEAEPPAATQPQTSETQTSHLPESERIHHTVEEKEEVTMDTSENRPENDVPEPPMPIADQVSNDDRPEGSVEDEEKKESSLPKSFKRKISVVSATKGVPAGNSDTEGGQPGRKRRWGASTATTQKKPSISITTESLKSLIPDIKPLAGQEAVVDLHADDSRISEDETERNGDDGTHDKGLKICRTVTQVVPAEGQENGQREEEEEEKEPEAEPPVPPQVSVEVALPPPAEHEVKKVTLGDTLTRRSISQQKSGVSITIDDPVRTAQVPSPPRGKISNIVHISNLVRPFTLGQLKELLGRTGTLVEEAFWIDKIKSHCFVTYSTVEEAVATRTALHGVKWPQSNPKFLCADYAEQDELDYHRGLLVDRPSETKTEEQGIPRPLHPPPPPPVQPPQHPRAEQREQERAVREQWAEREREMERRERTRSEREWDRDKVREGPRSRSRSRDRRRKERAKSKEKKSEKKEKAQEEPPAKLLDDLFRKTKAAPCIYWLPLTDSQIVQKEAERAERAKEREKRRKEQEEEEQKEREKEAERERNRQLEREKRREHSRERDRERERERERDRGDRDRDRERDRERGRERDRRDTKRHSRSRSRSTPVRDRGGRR
UniProt Q9Y2X3: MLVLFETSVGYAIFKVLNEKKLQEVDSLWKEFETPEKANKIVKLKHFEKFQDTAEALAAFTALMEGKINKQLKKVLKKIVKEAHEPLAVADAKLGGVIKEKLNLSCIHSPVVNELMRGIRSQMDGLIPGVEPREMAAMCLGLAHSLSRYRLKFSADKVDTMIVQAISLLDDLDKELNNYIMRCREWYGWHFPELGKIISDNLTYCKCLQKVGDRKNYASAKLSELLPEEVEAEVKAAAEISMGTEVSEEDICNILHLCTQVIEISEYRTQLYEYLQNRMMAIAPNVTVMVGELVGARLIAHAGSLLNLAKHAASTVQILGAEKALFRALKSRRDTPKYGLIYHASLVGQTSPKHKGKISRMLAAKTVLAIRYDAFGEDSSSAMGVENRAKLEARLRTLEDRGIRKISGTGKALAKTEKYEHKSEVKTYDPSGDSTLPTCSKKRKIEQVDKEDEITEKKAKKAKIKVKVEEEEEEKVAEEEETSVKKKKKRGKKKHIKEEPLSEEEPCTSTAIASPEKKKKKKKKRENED
UniProt Q9UHI6: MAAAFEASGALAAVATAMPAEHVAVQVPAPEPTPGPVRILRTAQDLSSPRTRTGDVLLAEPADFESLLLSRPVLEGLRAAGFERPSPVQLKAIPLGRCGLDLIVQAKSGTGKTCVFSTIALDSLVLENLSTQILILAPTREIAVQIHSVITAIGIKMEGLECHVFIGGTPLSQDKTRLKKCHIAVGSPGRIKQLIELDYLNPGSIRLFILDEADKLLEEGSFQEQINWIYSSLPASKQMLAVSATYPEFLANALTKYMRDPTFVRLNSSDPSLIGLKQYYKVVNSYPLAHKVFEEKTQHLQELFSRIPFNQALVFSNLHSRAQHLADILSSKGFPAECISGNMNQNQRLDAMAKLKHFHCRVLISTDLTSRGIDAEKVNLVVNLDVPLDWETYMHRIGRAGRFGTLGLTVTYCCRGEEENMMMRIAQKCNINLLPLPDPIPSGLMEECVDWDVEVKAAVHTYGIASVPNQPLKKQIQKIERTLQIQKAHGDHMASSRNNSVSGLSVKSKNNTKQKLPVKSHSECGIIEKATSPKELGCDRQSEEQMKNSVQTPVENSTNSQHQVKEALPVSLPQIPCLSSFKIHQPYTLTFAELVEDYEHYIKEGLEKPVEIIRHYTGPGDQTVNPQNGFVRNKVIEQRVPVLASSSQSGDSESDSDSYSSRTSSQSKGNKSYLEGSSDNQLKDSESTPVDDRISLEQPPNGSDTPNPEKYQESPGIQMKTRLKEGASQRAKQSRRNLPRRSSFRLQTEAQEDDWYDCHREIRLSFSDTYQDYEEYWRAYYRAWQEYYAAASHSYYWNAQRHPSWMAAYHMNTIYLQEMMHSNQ
UniProt Q9UNS1: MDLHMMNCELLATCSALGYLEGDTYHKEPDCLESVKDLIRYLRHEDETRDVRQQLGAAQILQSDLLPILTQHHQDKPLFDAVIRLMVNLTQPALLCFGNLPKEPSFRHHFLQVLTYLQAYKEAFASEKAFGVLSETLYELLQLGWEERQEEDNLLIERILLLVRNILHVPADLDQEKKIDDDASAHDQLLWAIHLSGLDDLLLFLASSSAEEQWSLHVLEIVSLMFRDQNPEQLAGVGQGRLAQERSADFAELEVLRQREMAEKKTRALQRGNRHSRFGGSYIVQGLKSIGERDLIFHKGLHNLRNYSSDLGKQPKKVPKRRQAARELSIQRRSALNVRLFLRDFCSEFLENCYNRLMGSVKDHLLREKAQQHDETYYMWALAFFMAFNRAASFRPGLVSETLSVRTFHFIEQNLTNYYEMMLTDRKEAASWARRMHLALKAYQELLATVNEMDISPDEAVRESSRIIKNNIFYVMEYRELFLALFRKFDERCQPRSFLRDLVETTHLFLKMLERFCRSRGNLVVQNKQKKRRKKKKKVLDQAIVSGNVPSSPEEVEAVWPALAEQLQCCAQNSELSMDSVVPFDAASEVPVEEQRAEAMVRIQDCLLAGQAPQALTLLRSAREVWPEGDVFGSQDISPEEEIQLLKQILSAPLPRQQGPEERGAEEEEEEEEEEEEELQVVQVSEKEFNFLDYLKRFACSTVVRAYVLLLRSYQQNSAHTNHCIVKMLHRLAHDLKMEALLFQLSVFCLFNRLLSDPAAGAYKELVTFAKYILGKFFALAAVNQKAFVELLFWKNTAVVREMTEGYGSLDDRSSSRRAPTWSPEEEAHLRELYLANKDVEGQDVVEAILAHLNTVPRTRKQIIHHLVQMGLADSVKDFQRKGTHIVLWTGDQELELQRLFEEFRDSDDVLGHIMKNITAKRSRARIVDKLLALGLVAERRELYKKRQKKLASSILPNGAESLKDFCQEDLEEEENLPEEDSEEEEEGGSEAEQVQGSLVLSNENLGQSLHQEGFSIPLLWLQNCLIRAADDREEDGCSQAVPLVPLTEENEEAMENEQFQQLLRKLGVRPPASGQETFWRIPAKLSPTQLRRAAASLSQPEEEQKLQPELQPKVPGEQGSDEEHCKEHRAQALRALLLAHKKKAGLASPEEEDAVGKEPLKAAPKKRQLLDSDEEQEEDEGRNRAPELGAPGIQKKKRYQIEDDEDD

Compound in the test: COC(=O)C#Cc1ccccc1 [methyl 3-phenylpropiolate]
The test is described as follows: log2 ratio of iodoacetamide-alkyne labeling of the cysteine site, DMSO over compound (competition); higher = stronger covalent engagement of the cysteine by the compound, active = 1 or more. The conditions noted are these: 500 µM; treatment time 1 h; system: HEK293T cell lysate. An outline of the steps: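 HEK293T lysate (2 mg/mL) was treated with DMSO or electrophile (500 µM, 1 h, ambient temperature), then iodoacetamide alkyne (1 h), clicked to sCIP-TMT reagents, pooled, trypsin-digested overnight at 37 °C, streptavidin-enriched and acid-eluted. Peptides were run on Orbitrap Eclipse LC-MS/MS with FAIMS and quantified in FragPipe. The log2 competition ratio per cysteine is mean control-channel over mean compound-channel reporter intensity. Duplicate channels and three replicates were used, and cysteines quantified in only one replicate were excluded.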
Turning to PA2G4 C179 (UniProt Q9UQ80), the “log2 ratio of iodoacetamide-alkyne labeling” value (shortened to “log2 ratio”) was inactive: -0.273. Under RUVBL1 C94 (UniProt Q9Y265) stands inactive: 0.0602; under LIMCH1 C669 (UniProt Q9UPQ0), inactive: 0.285. The figure for LEMD3 C346 (UniProt Q9Y2U8) is inactive: 0.462. The figure for CPSF3 C498 (UniProt Q9UKF6) is inactive: 0.546; for VAV3 C44 (UniProt Q9UKW4) it is inactive: -0.271. Turning to ACOT9 C299 (UniProt Q9Y305), the “log2 ratio” value was inactive: -0.0311. For ACIN1 C733 (UniProt Q9UKV3), the “log2 ratio” value was inactive: 0.0856. Turning to CPSF3 C655 (UniProt Q9UKF6), the “log2 ratio” value is inactive: 0.293.

In the case of DIS3 C533 (UniProt Q9Y2L1), the “log2 ratio” value is inactive: 0.324. As to NOP58 C439 (UniProt Q9Y2X3), the “log2 ratio” value is inactive: 0.569. Under DDX20 C524 (UniProt Q9UHI6) stands inactive: 0.6. Regarding BAG5 C157 (UniProt Q9UL15), the “log2 ratio” value was inactive: 0.444.

Regarding SAP30BP C127 (UniProt Q9UHR5), the “log2 ratio” value was active: 1.3. The figure for HECTD1 C2224 (UniProt Q9ULT8) is inactive: 0.302; for TIMELESS C606 (UniProt Q9UNS1) it is inactive: 0.112.

(Values after the supplement of paper PMC11006884.)
